Assay results from publication PMC3224144.
Results are given in words; binding and its absence hold for the method and conditions named. Some results given as binding are weak or reduced against the parent protein; the word gives no strength. Blank lines part the entries; values can stand above or below the molecule they belong to.

Sequences of proteins named here, by UniProt entry; tags and fusion partners are left off.
UniProt P03713: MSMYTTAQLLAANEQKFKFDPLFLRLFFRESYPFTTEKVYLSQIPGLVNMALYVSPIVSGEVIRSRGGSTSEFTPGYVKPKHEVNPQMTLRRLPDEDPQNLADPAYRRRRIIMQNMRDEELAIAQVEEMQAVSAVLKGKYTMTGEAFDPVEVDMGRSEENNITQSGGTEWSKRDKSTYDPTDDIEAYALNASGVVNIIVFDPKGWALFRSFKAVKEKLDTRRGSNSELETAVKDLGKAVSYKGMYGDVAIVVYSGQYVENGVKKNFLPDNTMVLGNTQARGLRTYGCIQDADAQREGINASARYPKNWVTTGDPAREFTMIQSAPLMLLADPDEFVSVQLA
UniProt P03711: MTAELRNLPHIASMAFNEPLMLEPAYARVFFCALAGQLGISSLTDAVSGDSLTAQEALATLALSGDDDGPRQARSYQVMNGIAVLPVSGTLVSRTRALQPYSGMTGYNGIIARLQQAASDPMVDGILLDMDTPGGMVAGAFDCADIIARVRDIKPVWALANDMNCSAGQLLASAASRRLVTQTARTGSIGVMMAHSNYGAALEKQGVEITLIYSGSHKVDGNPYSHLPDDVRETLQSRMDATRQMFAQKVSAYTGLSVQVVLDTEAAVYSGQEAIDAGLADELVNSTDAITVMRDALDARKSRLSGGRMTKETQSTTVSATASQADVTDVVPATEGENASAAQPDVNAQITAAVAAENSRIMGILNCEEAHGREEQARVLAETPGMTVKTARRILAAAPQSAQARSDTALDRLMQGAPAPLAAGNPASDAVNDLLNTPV

Key:
Assay in all cases: two-hybrid; array-based yeast two-hybrid screens; each protein as bait (Gal4 DNA-binding domain) and as prey (Gal4 activation domain), N- and C-terminal fusions; bait-prey vector pairs pDEST32-pDEST22, pGBKT7g-pGADT7g, pGBKT7g-pGADCg, pGBKCg-pGADCg, pGBKCg-pGADT7g; ten configurations a pair; positives retested
[1] = target: D (bacteriophage lambda) (UniProt P03712)
[2] = target: major capsid protein E (bacteriophage lambda) (UniProt P03713)
[3] = target: C protease (bacteriophage lambda) (UniProt P03711)
[4] = target: T1, tape measure protein H (bacteriophage lambda) (UniProt P03736)
T1 sequence: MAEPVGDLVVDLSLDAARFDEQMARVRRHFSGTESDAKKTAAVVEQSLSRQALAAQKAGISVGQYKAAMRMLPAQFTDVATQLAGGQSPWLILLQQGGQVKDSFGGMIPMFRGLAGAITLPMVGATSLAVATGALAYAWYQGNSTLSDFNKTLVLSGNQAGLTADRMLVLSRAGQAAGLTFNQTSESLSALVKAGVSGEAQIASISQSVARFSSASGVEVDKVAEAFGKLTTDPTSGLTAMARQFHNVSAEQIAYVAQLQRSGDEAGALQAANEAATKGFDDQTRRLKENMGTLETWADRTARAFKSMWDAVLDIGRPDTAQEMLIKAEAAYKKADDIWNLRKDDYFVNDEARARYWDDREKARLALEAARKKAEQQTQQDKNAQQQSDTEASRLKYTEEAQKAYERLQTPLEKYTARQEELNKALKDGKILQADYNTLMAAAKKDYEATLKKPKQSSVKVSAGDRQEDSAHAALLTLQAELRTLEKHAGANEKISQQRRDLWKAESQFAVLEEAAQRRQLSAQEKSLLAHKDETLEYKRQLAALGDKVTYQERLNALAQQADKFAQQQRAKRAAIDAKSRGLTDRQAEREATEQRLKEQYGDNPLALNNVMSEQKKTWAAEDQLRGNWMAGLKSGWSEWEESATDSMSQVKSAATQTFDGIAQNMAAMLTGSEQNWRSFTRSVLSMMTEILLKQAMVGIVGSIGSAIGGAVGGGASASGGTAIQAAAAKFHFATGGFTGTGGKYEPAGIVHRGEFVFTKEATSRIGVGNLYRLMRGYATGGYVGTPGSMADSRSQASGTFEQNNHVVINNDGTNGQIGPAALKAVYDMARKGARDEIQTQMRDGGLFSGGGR

[5] = compound: CII (bacteriophage lambda) (UniProt P03042)
[6] = target: T2, D (bacteriophage lambda), P03712; conditions: remark: other sources report otherwise
T2 chain: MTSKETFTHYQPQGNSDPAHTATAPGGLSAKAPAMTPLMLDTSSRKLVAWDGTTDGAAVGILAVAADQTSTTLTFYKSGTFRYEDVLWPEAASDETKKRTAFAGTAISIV

[7] = target: T3, DNA packaging protein A (bacteriophage lambda) (UniProt P03708)
T3 sequence: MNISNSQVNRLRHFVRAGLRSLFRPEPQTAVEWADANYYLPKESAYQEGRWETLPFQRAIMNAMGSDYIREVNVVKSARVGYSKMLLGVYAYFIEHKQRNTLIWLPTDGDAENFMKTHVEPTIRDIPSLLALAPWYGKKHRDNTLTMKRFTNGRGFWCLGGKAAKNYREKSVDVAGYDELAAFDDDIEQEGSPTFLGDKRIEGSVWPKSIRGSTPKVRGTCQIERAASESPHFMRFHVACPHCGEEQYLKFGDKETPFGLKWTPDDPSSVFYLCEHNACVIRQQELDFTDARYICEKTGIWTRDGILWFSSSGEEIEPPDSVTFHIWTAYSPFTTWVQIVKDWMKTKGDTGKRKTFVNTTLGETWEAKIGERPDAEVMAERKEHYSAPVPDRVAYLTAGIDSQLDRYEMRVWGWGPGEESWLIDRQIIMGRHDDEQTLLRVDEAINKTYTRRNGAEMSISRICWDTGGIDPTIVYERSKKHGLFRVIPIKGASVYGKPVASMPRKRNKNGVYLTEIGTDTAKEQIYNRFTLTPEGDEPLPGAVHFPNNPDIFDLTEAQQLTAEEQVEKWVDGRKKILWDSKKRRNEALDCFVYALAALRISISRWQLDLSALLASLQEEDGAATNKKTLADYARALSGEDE

[8] = target: T4, Integrase (Int) (bacteriophage lambda) (UniProt P03700)
T4 sequence: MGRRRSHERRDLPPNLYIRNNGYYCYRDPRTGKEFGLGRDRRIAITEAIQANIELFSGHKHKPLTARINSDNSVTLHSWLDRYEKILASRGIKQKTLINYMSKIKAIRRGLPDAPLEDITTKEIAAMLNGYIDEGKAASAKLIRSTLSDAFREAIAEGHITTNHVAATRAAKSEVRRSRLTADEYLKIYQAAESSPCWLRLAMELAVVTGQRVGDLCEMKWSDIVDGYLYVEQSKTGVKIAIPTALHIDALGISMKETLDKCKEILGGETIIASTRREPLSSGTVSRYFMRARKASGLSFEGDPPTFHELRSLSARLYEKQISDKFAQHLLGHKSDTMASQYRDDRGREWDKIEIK

[9] = target: T5, Nu1 (bacteriophage lambda) (UniProt P03707)
T5 sequence: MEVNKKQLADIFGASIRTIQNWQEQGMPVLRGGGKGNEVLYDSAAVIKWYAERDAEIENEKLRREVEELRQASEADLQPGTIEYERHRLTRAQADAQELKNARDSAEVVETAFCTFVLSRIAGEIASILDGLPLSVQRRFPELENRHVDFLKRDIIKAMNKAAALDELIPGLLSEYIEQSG

[10] = target: T6, antiterminator N (bacteriophage lambda) (UniProt P03045)
T6 sequence: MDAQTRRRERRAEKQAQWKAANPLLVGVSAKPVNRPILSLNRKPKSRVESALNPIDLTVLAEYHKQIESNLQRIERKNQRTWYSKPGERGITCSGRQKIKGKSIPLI

[11] = target: T7, NinD (bacteriophage lambda) (UniProt P03767)
T7 sequence: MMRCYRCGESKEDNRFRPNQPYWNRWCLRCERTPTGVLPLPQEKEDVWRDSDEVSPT

[12] = compound: T8, P (bacteriophage lambda) (UniProt P03689)
T8 sequence: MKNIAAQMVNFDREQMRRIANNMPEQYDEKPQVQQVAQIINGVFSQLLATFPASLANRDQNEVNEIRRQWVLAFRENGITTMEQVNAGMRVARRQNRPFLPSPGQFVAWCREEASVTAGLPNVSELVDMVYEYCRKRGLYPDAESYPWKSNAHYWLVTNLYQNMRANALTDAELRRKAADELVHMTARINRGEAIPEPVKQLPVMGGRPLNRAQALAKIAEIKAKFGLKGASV

B1: CII (protein, UniProt P03042 1-97)
chain: MVRANKRNEALRIESALLNKIAMLGTEKTAEAVGVDKSQISRWKRDWIPKFSMLLAVLEWGVVDDDMARLARQVAAILTNKKRPAATERSEQIQMEF
binding [4]: binds
binding [5]: binds

B2: D, P03712 1-110 (protein)
chain: MTSKETFTHYQPQGNSDPAHTATAPGGLSAKAPAMTPLMLDTSSRKLVAWDGTTDGAAVGILAVAADQTSTTLTFYKSGTFRYEDVLWPEAASDETKKRTAFAGTAISIV
binding [6]: binds

B3: major tail protein V (protein, UniProt P03733 1-246)
chain: MPVPNPTMPVKGAGTTLWVYKGSGDPYANPLSDVDWSRLAKVKDLTPGELTAESYDDSYLDDEDADWTATGQGQKSAGDTSFTLAWMPGEQGQQALLAWFNEGDTRAYKIRFPNGTVDVFRGWVSSIGKAVTAKEVITRTVKVTNVGRPSMAEDRSTVTAATGMTVTPASTSVVKGQSTTLTVAFQPEGVTDKSFRAVSADKTKATVSVSGMTITVNGVAAGKVNIPVVSGNGEFAAVAEITVTAS
binding [7]: binds
binding [8]: binds
binding [9]: binds
binding [10]: binds
binding [4]: binds

B4: antiterminator Q (protein, UniProt P03047 1-207)
chain: MRLESVAKFHSPKSPMMSDSPRATASDSLSGTDVMAAMGMAQSQAGFGMAAFCGKHELSQNDKQKAINYLMQFAHKVSGKYRGVAKLEGNTKAKVLQVLATFAYADYCRSAATPGARCRDCHGTGRAVDIAKTELWGRVVEKECGRCKGVGYSRMPASAAYRAVTMLIPNLTQPTWSRTVKPLYDALVVQCHKEESIADNILNAVTR
binding [11]: binds
binding [12]: binds

Results, then the molecule that gave them:

binding [1]: binds
binding [2]: binds
Molecule: major capsid protein E (from UniProt P03713 1-341)

binding [3]: binds
Molecule: C protease (from UniProt P03711 1-439)
